## Library screen at single concentrations

Protein sequences, listed by entry. Tags and fused reporters are not part of them. Residues count along the entry.
UniProt P9WPC5, whole entry: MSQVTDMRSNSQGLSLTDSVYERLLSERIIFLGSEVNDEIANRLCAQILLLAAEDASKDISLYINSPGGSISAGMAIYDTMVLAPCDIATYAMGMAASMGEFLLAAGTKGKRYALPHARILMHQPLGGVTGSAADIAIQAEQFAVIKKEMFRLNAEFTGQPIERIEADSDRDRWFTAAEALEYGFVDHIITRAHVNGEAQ
UniProt P9WPC3, whole entry partner: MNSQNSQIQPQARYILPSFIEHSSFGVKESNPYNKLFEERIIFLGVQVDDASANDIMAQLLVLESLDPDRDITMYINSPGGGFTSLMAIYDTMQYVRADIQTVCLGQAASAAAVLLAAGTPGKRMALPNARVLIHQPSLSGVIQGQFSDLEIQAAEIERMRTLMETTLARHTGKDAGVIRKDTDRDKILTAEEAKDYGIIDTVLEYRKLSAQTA
UniProt Q8IDJ8, 1-583: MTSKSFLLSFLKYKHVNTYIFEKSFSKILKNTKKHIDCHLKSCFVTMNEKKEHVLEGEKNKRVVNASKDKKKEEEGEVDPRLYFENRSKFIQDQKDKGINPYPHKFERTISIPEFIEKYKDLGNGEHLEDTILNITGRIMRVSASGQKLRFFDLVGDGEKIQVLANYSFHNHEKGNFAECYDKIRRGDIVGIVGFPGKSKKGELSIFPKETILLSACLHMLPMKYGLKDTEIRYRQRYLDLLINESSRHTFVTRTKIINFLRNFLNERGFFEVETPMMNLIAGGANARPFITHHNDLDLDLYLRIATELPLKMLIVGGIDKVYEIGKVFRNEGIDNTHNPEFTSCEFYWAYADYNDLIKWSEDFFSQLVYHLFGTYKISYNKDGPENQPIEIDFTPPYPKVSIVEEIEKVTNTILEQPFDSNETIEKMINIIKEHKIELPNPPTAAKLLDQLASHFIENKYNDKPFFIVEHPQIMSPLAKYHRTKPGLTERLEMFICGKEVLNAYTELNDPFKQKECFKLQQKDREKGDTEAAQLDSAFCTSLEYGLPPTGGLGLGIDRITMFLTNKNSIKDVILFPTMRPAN
UniProt P9WFT3, whole entry: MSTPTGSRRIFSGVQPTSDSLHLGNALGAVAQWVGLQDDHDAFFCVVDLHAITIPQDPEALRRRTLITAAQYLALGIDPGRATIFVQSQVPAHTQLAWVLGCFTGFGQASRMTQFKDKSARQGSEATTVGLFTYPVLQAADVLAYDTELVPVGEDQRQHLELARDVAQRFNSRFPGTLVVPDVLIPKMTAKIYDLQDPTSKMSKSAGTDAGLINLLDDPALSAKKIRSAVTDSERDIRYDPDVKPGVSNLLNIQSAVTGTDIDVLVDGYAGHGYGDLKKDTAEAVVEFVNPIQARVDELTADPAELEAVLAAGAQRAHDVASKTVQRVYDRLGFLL
UniProt A4I591, 1-473: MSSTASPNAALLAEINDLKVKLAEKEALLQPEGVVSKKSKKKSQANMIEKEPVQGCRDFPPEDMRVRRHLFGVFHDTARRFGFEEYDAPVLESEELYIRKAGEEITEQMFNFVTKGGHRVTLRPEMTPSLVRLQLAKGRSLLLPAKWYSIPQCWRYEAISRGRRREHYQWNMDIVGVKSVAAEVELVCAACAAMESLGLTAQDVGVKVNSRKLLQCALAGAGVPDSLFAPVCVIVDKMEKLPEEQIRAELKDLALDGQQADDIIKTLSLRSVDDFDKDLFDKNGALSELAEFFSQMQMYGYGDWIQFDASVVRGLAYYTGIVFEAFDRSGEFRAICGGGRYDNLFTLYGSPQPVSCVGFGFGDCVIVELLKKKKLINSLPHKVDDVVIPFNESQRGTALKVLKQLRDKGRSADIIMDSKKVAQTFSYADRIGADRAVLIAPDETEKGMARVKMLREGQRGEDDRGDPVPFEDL
UniProt Q4DA54, 1-478: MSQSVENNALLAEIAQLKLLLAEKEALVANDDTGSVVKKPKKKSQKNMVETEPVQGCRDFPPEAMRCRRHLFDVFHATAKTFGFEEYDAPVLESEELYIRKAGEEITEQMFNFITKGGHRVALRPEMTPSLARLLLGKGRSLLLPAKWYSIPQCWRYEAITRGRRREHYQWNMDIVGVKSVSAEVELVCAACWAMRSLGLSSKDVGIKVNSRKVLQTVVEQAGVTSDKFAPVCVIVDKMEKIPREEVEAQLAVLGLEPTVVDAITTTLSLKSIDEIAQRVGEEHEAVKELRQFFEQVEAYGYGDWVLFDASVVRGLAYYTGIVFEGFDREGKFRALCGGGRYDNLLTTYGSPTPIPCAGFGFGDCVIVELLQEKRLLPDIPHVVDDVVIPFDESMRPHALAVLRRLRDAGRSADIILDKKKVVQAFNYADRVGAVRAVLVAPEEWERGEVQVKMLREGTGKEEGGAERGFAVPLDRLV

Measurements from “University of Dundee, Small-Polar-MMV Screening Library” (2021), ChEMBL document CHEMBL3988442.

ClpP1P2: 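Protease assay of ClpP1P2, read by the AMC dye that it sets free. Target: ClpP1P2, Mycobacterium tuberculosis (UniProt P9WPC5 and UniProt P9WPC3). Tested at 50 µM. Higher reads as stronger inhibition, judged from the few compounds that gave an IC50. Most other retested compounds had strongly negative values. About 69,000 compounds were tested under these conditions; 0.015% (about 10) showed 50% or more at least once.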
PfKRS1: 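Lysine-tRNA ligase, Plasmodium falciparum 3D7 (UniProt Q8IDJ8). Enzyme assay of the cytosolic lysyl-tRNA synthetase in 384-well plates, read by luminescence. Tested at 30 µM. Direction is inferred from only a few compounds that gave an IC50; most scored high, so higher reads as stronger inhibition. Size under these conditions: about 69,000 compounds, about 49 of them at 50% or above in at least one test.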
MtTrpRS: 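Tryptophan-tRNA ligase, Mycobacterium tuberculosis (UniProt P9WFT3). Enzyme assay of tryptophanyl-tRNA synthetase; the read-out is not stated. Compounds at 10 µM. Direction is not recorded; retested compounds ran higher, which suggests that high means inhibition. Size under these conditions: about 65,000 compounds, about 64 of them at 50% or above in at least one test.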
LiHisRS: 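Histidine-tRNA ligase, Leishmania infantum (UniProt A4I591). Enzyme assay of histidyl-tRNA synthetase; the read-out is not stated. Compounds at 30 µM. Direction is inferred from retests: higher values go with stronger inhibition. The assay is labelled LdHisRS but filed under L. infantum. Size under these conditions: about 69,000 compounds, about 410 of them at 50% or above in at least one test.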
TcHisRS: 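Enzyme assay of histidyl-tRNA synthetase; the read-out is not stated. Target: Histidine-tRNA ligase, Trypanosoma cruzi CL Brener (UniProt Q4DA54). Tested at 30 µM. Higher reads as stronger inhibition (inferred: compounds with an IC50 in retests scored well above the rest). Of about 69,000 compounds tested this way, about 31 (0.045%) reached 50% or more in at least one test.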
Leishmania in macrophages: 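Cell assay of Leishmania donovani living inside macrophages; the read-out is not stated. Tested at 30 µM. The record gives no direction; compounds that gave an IC50 in retests scored well above the rest, so higher reads as stronger inhibition. About 69,000 compounds were tested under these conditions; 1.5% (about 1,000) showed 50% or more at least once.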

Each number is a percent effect as filed. How 0% and 100% were set is not recorded. Most values in the screen are low, and negative values occur. This is an unselected part of the compounds tested. Two or more numbers in one place are separate tests of the same structure; such repeats can differ widely. A dash means the value is not listed here; it may have been measured.

SMILES | ClpP1P2 | PfKRS1 | MtTrpRS | LiHisRS | TcHisRS | Leishmania in macrophages
Cc1cc(C(=O)NCCc2cn3nc(C)sc3n2)c(C)o1 | 1.184 | 8.566 | -2.129 | 29.58 | 14.92 | 24.78
Cc1nn(C)c(C)c1C1CCCN1CC(=O)Nc1ccc(Cl)cn1 (stereo not drawn) | -30.3 | 1.15 | -1.836 | 11.4 | 8.43 | -10.21
CC(C)Nc1ncc(-c2csc(NC(=O)C[C@H]3COCCN3)n2)cn1 | 16.94 | 3.04 | - | 22.86 | 4.52 | 3.651 and 19.11
Cn1cc(Cl)cc1C(=O)N1CCN(CCc2cccs2)CC1 | -48.94 | -0.9606 | -7.28 | 14.68 | 5.294 | 2.523
CCCn1ncnc1C(C)NC(=O)C1CCN(C(C)C)CC1 (stereo not drawn) | -6.63 | 0.123 | -7.392 | 27.63 | 4.348 | 11.61
Cc1cccc(CS(=O)(=O)c2nnc(N3CCOCC3)s2)c1 | 4.916 | 2.765 | 1.589 | 17.58 | 5.422 | 14.96
Cc1cc(C)n(C2CN(CC(O)c3ccc(C(F)(F)F)cc3)C2)n1 (stereo not drawn) | -14.58 | 0.3234 | -2.855 | 1.786 | 6.34 | 1.284
[H][C@@]12C[C@H](C(=O)Nc3cccnc3)[C@@]([H])(CN(C(=O)NC3CCCC3)C1)O2 | - | - | - | - | - | -2.598
Cc1cnn(C2CCCN(C(=O)c3ccc(OCC4CC4)nc3)C2)c1 (stereo not drawn) | -30.79 | 0.6626 | -8.422 | 8.333 | 3.812 | 6.359
CCn1ccc2ccnc(CC3CN(C(=O)Cn4ccnc4C)C3)c21 | -3.282 | 1.236 | -2.42 | 14.18 | 8.647 | -
Cn1nnnc1SCCC(=O)NCC1Cc2ccccc2O1 (stereo not drawn) | -2.73 | 3.929 | -2.113 | 5.263 | 6.098 | 27.33 and -1.542
COCC(C)(CCO)NC(=O)Nc1cccc(F)c1C (stereo not drawn) | -6.186 | 4.121 | -4.775 | 1.613 | 1.948 | 25.62
Cc1ccc(-n2cc(CN3CCOCC(CN(C)C)C3)cn2)cc1C (stereo not drawn) | 17.98 | -6.212 | -0.2463 | 12.4 | 13.1 | 13.21
CC(C)NC(=O)N1CCN(C(=O)c2ccco2)CC2(CC(=O)N(C)C2)C1 (stereo not drawn) | -3.39 | 3.088 | 2.766 | 23.08 | -6.098 | 13.05
Cn1cc(I)c(C(=O)NC2CCCCC2)n1 | 15.25 | 4.851 | -3.661 | 0 | 3.509 | 10.99
O=C(O)C(F)(F)F.O=C(O)C(F)(F)F.[H][C@]12C[C@@H](C(=O)Nc3cccnc3)CO[C@@]1([H])CCN(c1ncc(F)cn1)C2 | - | - | - | - | - | -0.4777
c1coc(-c2noc(CN3CCc4c(ncn4C4CC4)C3)n2)c1 | -9.457 | 1.145 | -2.437 | 3.175 | 4.04 | -17.07
c1ccc(-c2nc(CN3CCCC3Cn3cncn3)co2)cc1 (stereo not drawn) | -29.04 | 0.1125 | 0.2596 | 10.71 | 7.493 | -29.32
O=C(C[C@@H]1COC[C@H]2CN(Cc3ccccn3)C[C@@H]12)N1CCOCC1 | -3.042 | 0.5449 | 0.9682 | 23.08 | 4.878 | -
Cl.Cl.Cn1ccc(CN2CCOCC23CCNCC3)n1 | - | - | - | - | - | 18.93
O=C(NCCCNc1ccc(C(F)(F)F)cn1)c1ccccc1 | -21.57 | -0.8005 | -10.61 | 14.68 | 5.294 | 44.69
CCn1ncc2c1C(COC)CN(c1ncc(F)cn1)C2 (stereo not drawn) | -4.691 | 7.198 | - | 17.12 | -1.105 | -
CC(=O)N1CCC(n2ccc(-c3cnc(N4CCOCC4)nc3)n2)CC1 | 3.865 | 3.786 | - | 17.14 | 9.04 | 17.68 and 1.68
CN(C)CC(=O)N1CCOC2(CCCN(c3ncccc3F)C2)C1.O=C(O)C(F)(F)F.O=C(O)C(F)(F)F (stereo not drawn) | - | - | - | - | - | 30.24
OCC1CCN(Cc2cc3c(cc2Br)OCCO3)CC1 | -6.038 | 2.733 | -5.026 | 15.07 | 6.897 | 30.19
CC(=O)N(Cc1ncc(C)o1)C1CCN(Cc2ccccc2C#N)C1 (stereo not drawn) | -23.58 | 0.8039 | -1.988 | 6.838 | 4.274 | 17.78
O=C(c1ncn2c1CNS(=O)(=O)c1ccccc1-2)N1CC=CC1 | -3.609 | 1.364 | -2.609 | 12.82 | 6.952 | -1.285
O=C(NCCn1ccnc1)N1CCN(Cc2cccnc2)CC1 | -25.46 | 0.3043 | -1.45 | 9.615 | 1.143 | 18.38
Cc1cc(CN2C[C@H]3CC[C@@H]2CN(C2Cc4ccccc4C2)C3)on1 | 5.99 | 2.202 | 1.256 | 18.58 | 31.2 | -
COC1CCCN(c2nc(C)nc3c2CCN(Cc2ccco2)CC3)C1 (stereo not drawn) | -0.09036 | 7.389 | -3.614 | 20.55 | 9.901 | -7.862
CN(Cc1ccsc1)C(=O)Nc1ccc(S(C)(=O)=O)nc1 | 11.5 | 10.37 | 4.957 | -14.61 | 0 | -21.55
Cl.Cn1cc([C@@H]2CN(S(C)(=O)=O)C[C@H]2N)c2ccncc21 | - | - | - | - | - | 8.205
CN(Cc1noc(C2CC2)n1)C1CCCN(c2cccnn2)C1 (stereo not drawn) | 17.51 | 0.03368 | -8.277 | 15.65 | 7.471 | 14.46
Cn1ncc2c(=O)[nH]c(CN3CCC(Cc4ccccc4)CC3)nc21 | -0.6646 | -1.7 | 2.047 | 31.82 | -0.7576 | -37.84
CC(=O)N1CCC2(CCN(C(=O)c3cccc(C(F)(F)F)c3)CC2)C1 | 11.61 | 4.84 | 1.221 | -5.455 | -0.8264 | 6.096
COCCNC(=O)c1sc2ccccc2c1C1CCC(CN)CC1 (stereo not drawn) | -8.806 | 5.114 | -4.687 | 11.27 | 8.462 | -
CC(=O)NCC1CCN(C(=O)NCCc2ccc3c(c2)OCO3)CC1 | 3.478 | 3.485 | 0.6623 | 13.19 | 7.831 | -3.284
[H][C@]12CC[C@]([H])(CN(c3cc(OC)ncn3)C1)N(CC1CCC1)C2=O | - | - | - | - | - | 17.04
O=C(O)C(F)(F)F.O=C(O)C(F)(F)F.c1cncc(N2CCCn3nnc(CN4CCCCC4)c3C2)c1 | - | - | - | - | - | 49.5
CC(C)(C)NC(=O)C1CSCN1S(=O)(=O)c1ccccc1S(C)(=O)=O (stereo not drawn) | 2.265 | 8.566 | -1.547 | 25.37 | 3.191 | 10.89
CCOCCCNc1nc2c(s1)c(C)nn2C | 2.207 | 4.956 | 0.5727 | 26.88 | 6.548 | 10.88
O=C(CCc1ccccc1)N1CCn2cc(CN3CCCC3)nc2C1 | -12.75 | 4.066 | 0.5513 | 32.04 | 15.22 | -7.446
CC(C)Cc1cn(C2CCN(C(C)CC3CC3)CC2)nn1 (stereo not drawn) | -11.3 | 4.509 | -3.112 | 14 | 1.205 | 16.83
O=C(c1ccccc1)N1CC[C@H]2C[C@H](c3nccs3)O[C@@H]2C1 | -3.048 | 2.579 | 0.2766 | 23.08 | 2.439 | -
CC(C)(C)S(=O)(=O)CCNC(=O)c1cnc(-c2ccccc2)nc1 | -4.377 | 4.883 | -6.245 | 8.197 | 8.14 | -31.58
Cc1ccsc1CN1CCC(n2cc(C(O)c3ccccc3)nn2)CC1 (stereo not drawn) | -13.22 | 5.983 | 2.743 | 18.37 | 9.231 | 4.225
CNC(=O)[C@H]1C[C@@H]2CN(C(=O)NCCc3ccccc3)C[C@H]1O2 | -8.204 | 3.72 | -3.836 | 3.636 | 4.132 | -
Cc1cnn(CC(C)NCc2csc(-c3cccs3)n2)c1 (stereo not drawn) | 13.23 | -1.07 | -30.67 | 16.52 | 1.127 | 17.18
CCN(CC)CC(=O)N1CCCCC1c1nc(C)cs1 (stereo not drawn) | -29.46 | 0.5627 | 2.442 | 20.51 | 4.843 | 26.33
COCCC(=O)N1CC2(CCN(Cc3cccc(Cl)c3)CC2)C1.O=C(O)C(F)(F)F | - | - | - | - | - | 20.28
Cc1oc(-c2ccsc2)nc1CC(=O)NCC(C)(C)CN(C)C | -9.634 | 4.452 | 2.001 | 15.29 | 2.242 | 8.265
CCc1ccc(CN2CCc3ncnc(-c4cccnc4)c3CC2)o1.O=C(O)C(F)(F)F.O=C(O)C(F)(F)F | - | - | - | - | - | 1.671
COc1ccccc1CC(=O)N1CCCC(c2cc(C)[nH]n2)C1 (stereo not drawn) | -23.48 | -0.007058 | -5.085 | 9.649 | 7.849 | 10.83
N#CC1(c2ccccc2)CCN(C(=O)CN2C(=O)CCNC2=O)CC1 | -0.4642 | -1.306 | 0.2653 | 12 | 0.578 | 32.44
Cc1cc(C(=O)N2CCCS2(=O)=O)c(C)o1 | 0.4469 | 0.06864 | 0.9709 | 12.09 | 7.921 | 6.251
O=C(O)C(F)(F)F.O=C(O)C(F)(F)F.[H][C@]12C[C@@H](CN3CCCC3)N(C)[C@@]1([H])CCN(C(=O)Cc1ccsc1)C2 | - | - | - | - | - | 0.7472

Some entries from above, unchanged:

SMILES	ClpP1P2	PfKRS1	MtTrpRS	LiHisRS	TcHisRS	Leishmania in macrophages
Cc1ccsc1CN1CCC(n2cc(C(O)c3ccccc3)nn2)CC1 (stereo not drawn)	-13.22	5.983	2.743	18.37	9.231	4.225
CC(C)(C)S(=O)(=O)CCNC(=O)c1cnc(-c2ccccc2)nc1	-4.377	4.883	-6.245	8.197	8.14	-31.58
CC(C)NC(=O)N1CCN(C(=O)c2ccco2)CC2(CC(=O)N(C)C2)C1 (stereo not drawn)	-3.39	3.088	2.766	23.08	-6.098	13.05
[H][C@@]12C[C@H](C(=O)Nc3cccnc3)[C@@]([H])(CN(C(=O)NC3CCCC3)C1)O2	-	-	-	-	-	-2.598
Cl.Cl.Cn1ccc(CN2CCOCC23CCNCC3)n1	-	-	-	-	-	18.93
CC(C)(C)NC(=O)C1CSCN1S(=O)(=O)c1ccccc1S(C)(=O)=O (stereo not drawn)	2.265	8.566	-1.547	25.37	3.191	10.89
Cc1cc(C)n(C2CN(CC(O)c3ccc(C(F)(F)F)cc3)C2)n1 (stereo not drawn)	-14.58	0.3234	-2.855	1.786	6.34	1.284